PubChem BioAssay AID1259254, NCATS, 2017

Purpose: 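Gene knock-downs that lead to re-replication, shown by excess G2 DNA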 (primary screen)
Cell system: human HCT116 colorectal cancer cells
Reagents: single siRNA against human genes
Time to read-out: 3 days
Detection: 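Imaged Hoechst DNA stain sorts each cell into a cycle phase by DNA amount; per plate, G2 fraction set to 0% for non-targeting and 100% for GMNN siRNA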
Reading the numbers: G2 robust z-score and G2 cells, % of GMNN control: higher = more G2 cells, more excess DNA replication; raw share of cells in G2: higher = larger share of cells with G2 DNA content
Hit rule: 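An siRNA counts as active if its G2 robust z-score lies at least 5 MADs above the screen median; here such calls match roughly 38% of GMNN control or more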
Shown is one part, drawn at random, of about 59,000 deposited reagents. About 1,550 of them (2.6%) count as active. 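G2 share is only a proxy for re-replication; each gene was hit by three separate siRNAs, and active genes were retested.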 The raw values are shown without normalisation. Reagents against one gene are numbered here. Not stated in the record: the amount of reagent.

| gene | reagent | G2 robust z-score | G2 cells, % of GMNN control | raw share of cells in G2 (%) | call |
| --- | --- | --- | --- | --- | --- |
| B3GAT2 | 1 | 1.48 | 13.4 | 9.59 | inactive |
| B3GAT2 | 2 | -0.444 | -0.156 | 4.64 | inactive |
| B3GAT2 | 3 | -0.548 | -0.89 | 5.53 | inactive |
| CHRM2 | 1 | -1.14 | -5.03 | 4.04 | inactive |
| CHRM2 | 2 | 0.56 | 6.9 | 6.93 | inactive |
| CHRM2 | 3 | 0.0578 | 3.37 | 4.3 | inactive |
| CANT1 | 1 | 0.809 | 8.66 | 7.61 | inactive |
| CANT1 | 2 | -0.943 | -3.66 | 3.2 | inactive |
| CANT1 | 3 | -0.964 | -3.82 | 2.35 | inactive |
| RPS15AP34 | 1 | 1.35 | 12.4 | 9.95 | inactive |
| RPS15AP34 | 2 | 7.52 | 55.9 | 24.1 | active |
| RPS15AP34 | 3 | 0.141 | 3.96 | 5.09 | inactive |
| RPL18 | 1 | 1.75 | 15.3 | 11.5 | inactive |
| RPL18 | 2 | 1.26 | 11.8 | 8.89 | inactive |
| RPL18 | 3 | 0.956 | 9.69 | 6.86 | inactive |
| TAB2 | 1 | -0.386 | 0.252 | 5.67 | inactive |
| TAB2 | 2 | -1.07 | -4.54 | 3.54 | inactive |
| TAB2 | 3 | 0.204 | 4.4 | 5.09 | inactive |
| DHRS7B | 1 | -0.511 | -0.63 | 3.98 | inactive |
| DHRS7B | 2 | -1.17 | -5.28 | 2.26 | inactive |
| DHRS7B | 3 | 2.24 | 18.7 | 14.7 | inactive |
| DUOXA2 | 1 | 1.28 | 12 | 8.17 | inactive |
| DUOXA2 | 2 | -0.0233 | 2.8 | 4.63 | inactive |
| DUOXA2 | 3 | -0.853 | -3.03 | 3.53 | inactive |
| RELT | 1 | -0.66 | -1.67 | 3.85 | inactive |
| RELT | 2 | -0.0126 | 2.88 | 7.01 | inactive |
| RELT | 3 | 0.352 | 5.45 | 7.3 | inactive |
| FAM184B | 1 | -1.12 | -4.94 | 1.97 | inactive |
| FAM184B | 2 | 1.1 | 10.7 | 8.59 | inactive |
| FAM184B | 3 | 0.26 | 4.8 | 4.77 | inactive |
| KIAA1217 | 1 | -0.406 | 0.113 | 4.39 | inactive |
| KIAA1217 | 2 | -0.709 | -2.02 | 3.49 | inactive |
| KIAA1217 | 3 | 1.35 | 12.5 | 6.97 | inactive |
| ATP1B4 | 1 | -0.954 | -3.74 | 4.87 | inactive |
| ATP1B4 | 2 | -0.781 | -2.53 | 3.31 | inactive |
| ATP1B4 | 3 | 4.08 | 31.7 | 14.7 | inactive |
| RGS16 | 1 | 0.75 | 8.24 | 7.81 | inactive |
| RGS16 | 2 | -0.501 | -0.558 | 4.47 | inactive |
| RGS16 | 3 | -1.05 | -4.41 | 2.68 | inactive |
| LTK | 1 | -1.76 | -9.42 | 2.49 | inactive |
| LTK | 2 | 0.948 | 9.63 | 8.66 | inactive |
| LTK | 3 | -0.75 | -2.31 | 3.21 | inactive |
| ALDH4A1 | 1 | -0.512 | -0.632 | 5.04 | inactive |
| ALDH4A1 | 2 | 0.207 | 4.42 | 6.55 | inactive |
| ALDH4A1 | 3 | 0.0906 | 3.61 | 6 | inactive |
| IGLL1 | 1 | 0.861 | 9.03 | 8.81 | inactive |
| IGLL1 | 2 | 0.246 | 4.7 | 6.08 | inactive |
| IGLL1 | 3 | 0.155 | 4.06 | 4.82 | inactive |
| SOX3 | 1 | 0.824 | 8.77 | 8.63 | inactive |
| SOX3 | 2 | 0.674 | 7.71 | 7.19 | inactive |
| SOX3 | 3 | 1.18 | 11.3 | 7.7 | inactive |
| TNNT3 | 1 | -1.54 | -7.85 | 2.43 | inactive |
| TNNT3 | 2 | -0.872 | -3.17 | 3.71 | inactive |
| TNNT3 | 3 | -0.585 | -1.15 | 3.93 | inactive |
| MKS1 | 1 | 1.53 | 13.8 | 8.53 | inactive |
| MKS1 | 2 | 0.756 | 8.29 | 7.76 | inactive |
| MKS1 | 3 | -0.771 | -2.46 | 2.38 | inactive |
| AVIL | 1 | -0.881 | -3.23 | 4.29 | inactive |
| AVIL | 2 | 1.14 | 11 | 10.8 | inactive |
| AVIL | 3 | -0.303 | 0.838 | 4.11 | inactive |
| RBM12B | 1 | -1.19 | -5.37 | 1.93 | inactive |
| RBM12B | 2 | 0.101 | 3.68 | 5 | inactive |
| RBM12B | 3 | -0.953 | -3.73 | 3.03 | inactive |
| HMGN2P31 | 1 | -0.193 | 1.61 | 3.56 | inactive |
| HMGN2P31 | 2 | -0.673 | -1.77 | 3.11 | inactive |
| HMGN2P31 | 3 | 0.366 | 5.54 | 5.28 | inactive |
| HR | 1 | 0.262 | 4.81 | 6.34 | inactive |
| HR | 2 | 0.256 | 4.77 | 8.52 | inactive |
| HR | 3 | -0.603 | -1.27 | 3.98 | inactive |

Records above with an active call:
| gene | reagent | G2 robust z-score | G2 cells, % of GMNN control | raw share of cells in G2 (%) | call |
| --- | --- | --- | --- | --- | --- |
| RPS15AP34 | 2 | 7.52 | 55.9 | 24.1 | active |
